The target in assay [1] is TurboID-tagged K2A-mutant rat β-arrestin2 (rat) (UniProt P29067). Put plainly: proximity labelling.
For assay [2], the target named is TurboID-tagged wild-type rat β-arrestin2 (rat) (UniProt P29067). Description: proximity labelling.

Amino acid sequences for entries named in this document (tags omitted). A change or cut given only in a name is not applied to a line headed by its entry. Chains listed by the source or under a name are the forms on record and can include a tag or linker.
UniProt P29067: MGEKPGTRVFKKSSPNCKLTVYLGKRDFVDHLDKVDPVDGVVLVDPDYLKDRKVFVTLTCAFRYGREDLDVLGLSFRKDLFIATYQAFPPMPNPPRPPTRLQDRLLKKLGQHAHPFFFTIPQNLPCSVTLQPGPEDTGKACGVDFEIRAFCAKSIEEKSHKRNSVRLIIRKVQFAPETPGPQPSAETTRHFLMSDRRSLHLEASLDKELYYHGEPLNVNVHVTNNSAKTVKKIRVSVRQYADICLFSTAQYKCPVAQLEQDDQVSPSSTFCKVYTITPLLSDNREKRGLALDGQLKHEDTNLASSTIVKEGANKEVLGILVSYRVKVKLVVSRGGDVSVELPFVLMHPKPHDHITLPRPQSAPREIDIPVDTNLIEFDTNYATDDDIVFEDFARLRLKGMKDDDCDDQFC
TurboID-tagged K2A-mutant rat β-arrestin2 (P29067, form named): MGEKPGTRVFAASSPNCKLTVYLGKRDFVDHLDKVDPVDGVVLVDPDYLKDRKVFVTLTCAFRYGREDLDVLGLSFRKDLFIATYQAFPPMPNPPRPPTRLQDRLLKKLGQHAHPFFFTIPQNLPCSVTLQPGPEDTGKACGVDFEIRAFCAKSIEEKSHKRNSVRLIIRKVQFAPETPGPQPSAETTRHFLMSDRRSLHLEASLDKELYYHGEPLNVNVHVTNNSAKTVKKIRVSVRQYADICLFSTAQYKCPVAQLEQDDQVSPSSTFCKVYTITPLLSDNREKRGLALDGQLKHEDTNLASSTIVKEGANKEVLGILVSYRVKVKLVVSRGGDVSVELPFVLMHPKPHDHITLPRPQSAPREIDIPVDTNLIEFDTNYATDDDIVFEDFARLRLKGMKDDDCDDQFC

These are yes or no findings as the source states them, for the method shown. In cells and extracts the contact can be indirect. A yes stands for co-enrichment or nearness to the bait. Other partners may have been found. For part of these data: A no says only that the protein was not detected with the bait.

B1: AT1R-Cterm–Venus (plasma membrane-targeted C-terminus of rat AT1a angiotensin receptor) (domain or fragment)
chain: MGCVCSSNPENNNNDPTRSRAQASNSGGGIPPKAKSHSSLSTKMSTLSYRPSDNMSSSAKKPASCFEVE
modifications: phosphorylation induced by PMA (PKC) in the cells; residues not given
With B1, the binding entry in assay [1] is on record as “no binding”; in assay [2], “binds”.

B2: HIV Tat-specific factor 1, endogenous (protein, UniProt O43719 1-755)
chain: MSGTNLDGNDEFDEQLRMQELYGDGKDGDTQTDAGGEPDSLGQQPTDTPYEWDLDKKAWFPKITEDFIATYQANYGFSNDGASSSTANVEDVHARTAEEPPQEKAPEPTDARKKGEKRKAESGWFHVEEDRNTNVYVSGLPPDITVDEFIQLMSKFGIIMRDPQTEEFKVKLYKDNQGNLKGDGLCCYLKRESVELALKLLDEDEIRGYKLHVEVAKFQLKGEYDASKKKKKCKDYKKKLSMQQKQLDWRPERRAGPSRMRHERVVIIKNMFHPMDFEDDPLVLNEIREDLRVECSKFGQIRKLLLFDRHPDGVASVSFRDPEEADYCIQTLDGRWFGGRQITAQAWDGTTDYQVEETSREREERLRGWEAFLNAPEANRGLRRSDSVSASERAGPSRARHFSEHPSTSKMNAQETATGMAFEEPIDEKKFEKTEDGGEFEEGASENNAKESSPEKEAEEGCPEKESEEGCPKRGFEGSCSQKESEEGNPVRGSEEDSPKKESKKKTLKNDCEENGLAKESEDDLNKESEEEVGPTKESEEDDSEKESDEDCSEKQSEDGSEREFEENGLEKDLDEEGSEKELHENVLDKELEENDSENSEFEDDGSEKVLDEEGSEREFDEDSDEKEEEEDTYEKVFDDESDEKEDEEYADEKGLEAADKKAEEGDADEKLFEESDDKEDEDADGKEVEDADEKLFEDDDSNEKLFDEEEDSSEKLFDDSDERGTLGGFGSVEEGPLSTGSSFILSSDDDDDDI
For B2, the binding result in assay [2] was “binds”.

The values are drawn from publication doi:10.1101/2023.08.04.551955.
